Assay results: the supplement of paper PMC12823440, “Inhibitors supercharge kinase turnover through native proteolytic circuits” (Nature, 2025)
The other results are listed elsewhere or left out. The calls rarely recur for the same compound in another form.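 Kinases were expressed as nanoluciferase fusions in K562 cells and luminescence was read every 4 h between 2 and 18 h as percent of control, DMSO set to 100% and a positive control to 0%. A time point counts as decreased when the signal drops significantly (2 sigma). The hit call is the authors' own, does not follow from the count of time points alone, and its rule is not shown.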

Amino acid sequences for entries named in this document (tags omitted). A change or cut given only in a name is not applied to a line headed by its entry.
UniProt Q9UM73: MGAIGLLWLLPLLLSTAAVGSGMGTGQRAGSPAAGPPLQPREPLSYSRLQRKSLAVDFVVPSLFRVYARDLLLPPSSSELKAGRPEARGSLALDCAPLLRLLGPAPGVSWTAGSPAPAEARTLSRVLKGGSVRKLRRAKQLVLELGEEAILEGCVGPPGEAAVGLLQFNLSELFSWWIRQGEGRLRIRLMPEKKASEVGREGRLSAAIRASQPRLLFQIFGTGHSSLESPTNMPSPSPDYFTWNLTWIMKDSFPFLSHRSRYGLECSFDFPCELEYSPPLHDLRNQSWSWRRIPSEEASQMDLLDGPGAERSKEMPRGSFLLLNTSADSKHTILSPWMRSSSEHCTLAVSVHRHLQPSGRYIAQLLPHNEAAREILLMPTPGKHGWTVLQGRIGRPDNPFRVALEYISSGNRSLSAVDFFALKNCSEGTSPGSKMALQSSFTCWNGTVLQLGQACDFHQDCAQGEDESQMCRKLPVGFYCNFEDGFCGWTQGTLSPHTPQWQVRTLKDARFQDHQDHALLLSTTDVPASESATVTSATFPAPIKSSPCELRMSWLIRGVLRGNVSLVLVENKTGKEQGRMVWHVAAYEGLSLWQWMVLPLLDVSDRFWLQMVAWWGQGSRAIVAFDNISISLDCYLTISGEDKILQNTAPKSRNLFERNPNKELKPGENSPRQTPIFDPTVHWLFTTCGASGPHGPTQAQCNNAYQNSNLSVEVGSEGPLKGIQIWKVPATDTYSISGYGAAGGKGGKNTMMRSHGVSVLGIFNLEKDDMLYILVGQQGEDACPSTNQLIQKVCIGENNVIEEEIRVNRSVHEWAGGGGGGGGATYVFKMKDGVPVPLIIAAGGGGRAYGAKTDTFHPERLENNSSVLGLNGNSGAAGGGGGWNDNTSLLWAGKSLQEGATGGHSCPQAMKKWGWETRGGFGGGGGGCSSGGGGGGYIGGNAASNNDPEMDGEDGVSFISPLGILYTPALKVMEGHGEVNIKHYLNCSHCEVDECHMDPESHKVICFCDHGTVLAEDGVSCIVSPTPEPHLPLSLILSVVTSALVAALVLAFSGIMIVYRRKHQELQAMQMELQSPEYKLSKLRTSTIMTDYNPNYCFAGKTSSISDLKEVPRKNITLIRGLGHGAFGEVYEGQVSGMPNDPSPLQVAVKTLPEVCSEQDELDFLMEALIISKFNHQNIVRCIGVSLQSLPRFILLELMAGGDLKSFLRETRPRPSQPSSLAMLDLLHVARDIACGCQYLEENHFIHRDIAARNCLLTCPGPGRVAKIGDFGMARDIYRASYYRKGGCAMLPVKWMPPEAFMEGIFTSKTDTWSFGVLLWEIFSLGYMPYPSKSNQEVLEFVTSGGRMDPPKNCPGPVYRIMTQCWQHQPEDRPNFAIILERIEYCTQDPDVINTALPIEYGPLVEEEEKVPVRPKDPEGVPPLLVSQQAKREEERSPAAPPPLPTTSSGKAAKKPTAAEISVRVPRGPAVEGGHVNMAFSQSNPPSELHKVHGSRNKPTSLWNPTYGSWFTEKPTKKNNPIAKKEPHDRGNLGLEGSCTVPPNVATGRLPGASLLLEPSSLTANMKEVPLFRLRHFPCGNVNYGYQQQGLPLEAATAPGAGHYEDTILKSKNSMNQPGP
UniProt O14965: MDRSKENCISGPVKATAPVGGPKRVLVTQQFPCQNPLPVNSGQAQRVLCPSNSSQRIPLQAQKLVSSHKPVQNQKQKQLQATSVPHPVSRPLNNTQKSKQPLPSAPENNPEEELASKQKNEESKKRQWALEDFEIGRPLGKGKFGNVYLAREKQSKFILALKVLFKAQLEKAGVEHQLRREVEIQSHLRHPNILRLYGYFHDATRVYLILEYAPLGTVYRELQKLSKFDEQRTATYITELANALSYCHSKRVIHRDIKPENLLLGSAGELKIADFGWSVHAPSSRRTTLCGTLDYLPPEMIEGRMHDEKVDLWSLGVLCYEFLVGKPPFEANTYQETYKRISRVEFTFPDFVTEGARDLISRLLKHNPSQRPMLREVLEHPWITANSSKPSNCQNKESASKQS
UniProt Q9UQB9: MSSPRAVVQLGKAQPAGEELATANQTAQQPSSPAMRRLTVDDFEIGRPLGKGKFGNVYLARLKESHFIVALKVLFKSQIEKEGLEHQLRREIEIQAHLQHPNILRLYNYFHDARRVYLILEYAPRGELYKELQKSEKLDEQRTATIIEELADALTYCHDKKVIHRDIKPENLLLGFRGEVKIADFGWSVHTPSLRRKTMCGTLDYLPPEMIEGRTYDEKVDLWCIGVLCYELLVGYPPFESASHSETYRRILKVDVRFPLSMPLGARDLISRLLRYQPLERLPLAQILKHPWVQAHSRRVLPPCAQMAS
UniProt P51813: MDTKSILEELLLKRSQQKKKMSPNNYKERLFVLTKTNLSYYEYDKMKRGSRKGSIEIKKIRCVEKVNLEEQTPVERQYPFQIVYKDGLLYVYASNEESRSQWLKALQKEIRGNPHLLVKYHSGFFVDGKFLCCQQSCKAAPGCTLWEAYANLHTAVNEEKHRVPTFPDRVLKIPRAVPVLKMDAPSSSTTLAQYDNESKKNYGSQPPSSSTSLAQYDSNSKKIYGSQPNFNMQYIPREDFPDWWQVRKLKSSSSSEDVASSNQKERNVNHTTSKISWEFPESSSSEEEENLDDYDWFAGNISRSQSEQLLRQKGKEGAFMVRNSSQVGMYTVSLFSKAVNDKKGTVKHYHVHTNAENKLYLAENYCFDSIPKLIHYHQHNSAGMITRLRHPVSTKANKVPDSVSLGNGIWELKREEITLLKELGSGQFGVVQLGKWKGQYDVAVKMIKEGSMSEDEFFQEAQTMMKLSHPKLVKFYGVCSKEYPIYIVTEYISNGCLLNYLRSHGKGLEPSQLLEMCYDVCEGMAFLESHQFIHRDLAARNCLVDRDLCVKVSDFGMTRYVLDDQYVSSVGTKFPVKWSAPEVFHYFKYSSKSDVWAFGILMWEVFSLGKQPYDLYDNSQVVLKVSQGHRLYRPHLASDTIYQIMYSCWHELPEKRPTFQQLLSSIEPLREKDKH
UniProt P15056, whole entry, looked up: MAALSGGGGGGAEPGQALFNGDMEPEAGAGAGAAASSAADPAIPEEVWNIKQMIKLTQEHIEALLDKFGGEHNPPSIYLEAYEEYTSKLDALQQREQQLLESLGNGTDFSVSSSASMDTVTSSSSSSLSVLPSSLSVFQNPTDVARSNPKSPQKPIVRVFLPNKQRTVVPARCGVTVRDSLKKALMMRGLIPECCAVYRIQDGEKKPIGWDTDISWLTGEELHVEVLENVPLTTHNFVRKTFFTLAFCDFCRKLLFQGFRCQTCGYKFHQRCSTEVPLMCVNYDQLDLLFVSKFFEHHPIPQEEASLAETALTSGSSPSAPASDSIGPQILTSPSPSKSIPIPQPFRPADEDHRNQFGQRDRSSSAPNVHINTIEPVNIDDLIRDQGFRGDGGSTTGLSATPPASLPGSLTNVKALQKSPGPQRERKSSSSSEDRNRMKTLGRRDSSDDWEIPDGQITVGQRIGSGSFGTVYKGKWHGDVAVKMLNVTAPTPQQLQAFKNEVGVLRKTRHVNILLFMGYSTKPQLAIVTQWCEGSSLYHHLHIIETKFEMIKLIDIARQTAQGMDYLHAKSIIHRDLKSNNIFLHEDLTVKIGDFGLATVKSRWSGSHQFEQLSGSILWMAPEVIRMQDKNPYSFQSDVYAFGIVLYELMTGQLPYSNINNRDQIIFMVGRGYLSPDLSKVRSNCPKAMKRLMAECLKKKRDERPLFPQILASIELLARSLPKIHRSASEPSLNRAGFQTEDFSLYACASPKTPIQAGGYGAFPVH
UniProt Q13555: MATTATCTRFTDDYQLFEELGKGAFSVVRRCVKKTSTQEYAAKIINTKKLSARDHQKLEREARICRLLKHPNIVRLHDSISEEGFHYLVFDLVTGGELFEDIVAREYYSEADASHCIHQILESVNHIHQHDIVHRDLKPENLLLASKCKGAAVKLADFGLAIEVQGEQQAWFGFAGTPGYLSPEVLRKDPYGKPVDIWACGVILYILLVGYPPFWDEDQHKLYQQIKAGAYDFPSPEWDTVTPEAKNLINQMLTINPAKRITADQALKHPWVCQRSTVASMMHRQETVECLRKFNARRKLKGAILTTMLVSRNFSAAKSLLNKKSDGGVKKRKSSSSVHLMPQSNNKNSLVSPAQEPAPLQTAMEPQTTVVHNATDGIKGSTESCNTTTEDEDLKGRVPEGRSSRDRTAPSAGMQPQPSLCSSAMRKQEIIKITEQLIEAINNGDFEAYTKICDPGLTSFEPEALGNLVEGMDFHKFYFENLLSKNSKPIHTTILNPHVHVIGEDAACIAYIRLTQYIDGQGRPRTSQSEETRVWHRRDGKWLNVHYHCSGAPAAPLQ
UniProt Q00526: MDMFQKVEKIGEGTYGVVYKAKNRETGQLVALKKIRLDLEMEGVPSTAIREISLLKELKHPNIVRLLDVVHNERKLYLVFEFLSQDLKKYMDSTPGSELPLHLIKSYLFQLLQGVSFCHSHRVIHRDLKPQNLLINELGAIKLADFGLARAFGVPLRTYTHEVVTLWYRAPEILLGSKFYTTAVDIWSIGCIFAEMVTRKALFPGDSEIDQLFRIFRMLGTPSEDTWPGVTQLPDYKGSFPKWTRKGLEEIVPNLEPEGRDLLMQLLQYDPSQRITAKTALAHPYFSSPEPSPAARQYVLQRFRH
UniProt Q00534, whole entry: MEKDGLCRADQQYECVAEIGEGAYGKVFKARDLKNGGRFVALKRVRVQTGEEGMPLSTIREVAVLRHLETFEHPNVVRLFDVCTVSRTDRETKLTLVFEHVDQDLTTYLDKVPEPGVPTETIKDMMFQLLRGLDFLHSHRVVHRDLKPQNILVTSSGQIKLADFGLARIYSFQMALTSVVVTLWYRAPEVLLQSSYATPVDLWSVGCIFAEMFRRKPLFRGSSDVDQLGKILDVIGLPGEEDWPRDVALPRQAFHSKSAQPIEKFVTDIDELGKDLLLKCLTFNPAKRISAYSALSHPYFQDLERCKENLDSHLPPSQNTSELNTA
UniProt P07333, whole entry: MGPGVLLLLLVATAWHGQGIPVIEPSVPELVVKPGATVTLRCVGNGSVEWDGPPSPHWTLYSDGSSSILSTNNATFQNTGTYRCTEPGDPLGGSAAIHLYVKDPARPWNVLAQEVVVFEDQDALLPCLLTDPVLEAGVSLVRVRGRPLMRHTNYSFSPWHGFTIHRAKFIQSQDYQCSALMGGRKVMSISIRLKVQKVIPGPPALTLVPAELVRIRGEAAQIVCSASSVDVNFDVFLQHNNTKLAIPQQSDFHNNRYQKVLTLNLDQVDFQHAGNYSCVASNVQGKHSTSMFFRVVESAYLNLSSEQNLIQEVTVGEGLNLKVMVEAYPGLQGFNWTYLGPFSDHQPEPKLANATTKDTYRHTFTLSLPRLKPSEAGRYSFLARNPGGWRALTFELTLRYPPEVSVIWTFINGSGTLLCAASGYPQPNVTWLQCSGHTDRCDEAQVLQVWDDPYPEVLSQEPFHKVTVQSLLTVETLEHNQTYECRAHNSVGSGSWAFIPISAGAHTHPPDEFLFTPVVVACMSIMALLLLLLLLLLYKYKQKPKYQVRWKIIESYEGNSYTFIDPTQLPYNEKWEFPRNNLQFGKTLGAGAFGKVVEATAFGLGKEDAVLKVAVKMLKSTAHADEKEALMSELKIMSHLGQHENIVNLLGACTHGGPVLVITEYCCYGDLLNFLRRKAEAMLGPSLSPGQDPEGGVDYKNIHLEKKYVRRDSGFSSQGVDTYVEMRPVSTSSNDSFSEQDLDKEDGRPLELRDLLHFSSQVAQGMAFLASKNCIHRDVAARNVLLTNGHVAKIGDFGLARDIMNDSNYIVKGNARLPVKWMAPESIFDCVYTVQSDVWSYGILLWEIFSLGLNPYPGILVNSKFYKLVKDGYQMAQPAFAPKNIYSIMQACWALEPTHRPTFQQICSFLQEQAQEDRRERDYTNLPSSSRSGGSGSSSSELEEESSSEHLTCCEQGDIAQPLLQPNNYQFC
UniProt P41240: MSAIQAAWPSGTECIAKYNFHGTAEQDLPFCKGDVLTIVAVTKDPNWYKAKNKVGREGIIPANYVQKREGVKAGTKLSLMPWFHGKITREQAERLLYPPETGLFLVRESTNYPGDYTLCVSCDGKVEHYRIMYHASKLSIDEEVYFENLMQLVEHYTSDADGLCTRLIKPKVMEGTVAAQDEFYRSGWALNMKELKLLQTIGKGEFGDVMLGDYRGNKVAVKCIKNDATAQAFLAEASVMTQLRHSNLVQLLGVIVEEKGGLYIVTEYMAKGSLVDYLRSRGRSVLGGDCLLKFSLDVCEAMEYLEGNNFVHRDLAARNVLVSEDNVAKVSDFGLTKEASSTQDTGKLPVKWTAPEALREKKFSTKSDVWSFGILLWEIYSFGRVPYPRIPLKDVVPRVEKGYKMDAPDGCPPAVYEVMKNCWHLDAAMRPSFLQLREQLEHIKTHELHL

What was measured:
Experiment in all cases: number of time points (of 5) at which kinase-Nluc abundance scored as decreased, DMSO-normalised (count); higher = more persistent destabilization
Conditions in all cases: K562; 2-18 h
ALK = ALK (UniProt Q9UM73)
ARAF = ARAF (UniProt P10398)
AURKA = AURKA (UniProt O14965)
AURKB = AURKB (UniProt Q96GD4)
AURKC = AURKC (UniProt Q9UQB9)
BLK = BLK (UniProt P51451)
BMX = BMX (UniProt P51813)
BRAF = BRAF (UniProt P15056)
BRAF_V600E = test system: BRAF_V600E
BTK = BTK (UniProt Q06187)
CAMK2A = CAMK2A (UniProt Q9UQM7)
CAMK2G = CAMK2G (UniProt Q13555)
CDK10 = CDK10 (UniProt Q15131)
CDK2 = CDK2 (UniProt P24941)
CDK3 = CDK3 (UniProt Q00526)
CDK5 = CDK5 (UniProt Q00535)
CDK6 = CDK6 (UniProt Q00534)
CHEK2 = CHEK2 (UniProt O96017)
CSF1R = CSF1R (UniProt P07333)
CSK = CSK (UniProt P41240)

| Structure (SMILES) | number of time points (ALK) | number of time points (ARAF) | number of time points (AURKA) | number of time points (AURKB) | number of time points (AURKC) | number of time points (BLK) | number of time points (BMX) | number of time points (BRAF) | number of time points (BRAF_V600E) | number of time points (BTK) | number of time points (CAMK2A) | number of time points (CAMK2G) | number of time points (CDK10) | number of time points (CDK2) | number of time points (CDK3) | number of time points (CDK5) | number of time points (CDK6) | number of time points (CHEK2) | number of time points (CSF1R) | number of time points (CSK) |
| --- | --- | --- | --- | --- | --- | --- | --- | --- | --- | --- | --- | --- | --- | --- | --- | --- | --- | --- | --- | --- |
| COCCNc1cc(NC(=O)N2CCCc3cc(CN4CCOCC4=O)c(C=O)nc32)ncc1C#N (10 µM) | 0 | 0 | 0 | 0 | 0 | 0 | 0 | 0 | 0 | 0 | 0 | 0 | 0 | 0 | 0 | 0 | 0 | 0 | 0 | 0 |
| N#Cc1cnc(Nc2cc(NC[C@H]3CNCCO3)c(C(F)(F)F)cn2)cn1 (10 µM) | 3 | 0 | 0 | 0 | 0 | 1 | 0 | 1 | 0 | 0 | 0 | 1 | 0 | 0 | 0 | 0 | 0 | 0 | 2 | 0 |
| CCC[C@H](C)Oc1nc(N)c2[nH]c(=O)n(CCCCCN3CCCCC3)c2n1 (10 µM) | 0 | 0 | 0 | 0 | 0 | 0 | 0 | 0 | 0 | 0 | 0 | 0 | 0 | 0 | 0 | 0 | 0 | 0 | 0 | 0 |
| O=C(Nc1ccc(F)cc1F)C(NC(=S)Nc1cc(C(F)(F)F)cc(C(F)(F)F)c1)c1ccccc1 (racemic) (2.5 µM) | 0 | 0 | 0 | 0 | 0 | 0 | 0 | 0 | 0 | 0 | 0 | 0 | 0 | 0 | 0 | 0 | 0 | 0 | 0 | 0 |
| CS(=O)(=O)c1cccc(CNc2nc(Nc3ccc4c(c3)CCC(=O)N4)ncc2C(F)(F)F)c1 (10 µM) | 0 | 0 | 0 | 0 | 0 | 0 | 0 | 0 | 0 | 0 | 0 | 0 | 0 | 0 | 0 | 0 | 0 | 0 | 0 | 0 |
| CCCCNc1ncc(C(=O)NCc2ccc(-n3ccnc3)cc2)c(NC2CCC(O)CC2)n1 (stereo not given) (10 µM) | 0 | 0 | 0 | 0 | 0 | 0 | 0 | 0 | 0 | 0 | 0 | 0 | 0 | 0 | 0 | 0 | 0 | 1 | 1 | 0 |
| CNc1cc2c(Nc3cccc(Br)c3)ncnc2cn1 (10 µM) | 0 | 0 | 0 | 0 | 0 | 0 | 0 | 0 | 0 | 0 | 0 | 0 | 0 | 0 | 0 | 0 | 0 | 0 | 0 | 0 |
| O=S(=O)(c1ccc(O)cc1O)N1Cc2cc(O)cc(O)c2C1 (10 µM) | 0 | 0 | 0 | 0 | 0 | 0 | 0 | 0 | 0 | 0 | 0 | 0 | 0 | 0 | 0 | 0 | 0 | 0 | 0 | 0 |
| C=CC(=O)Nc1cc(Nc2nccc(-c3cn(C)c4ccccc34)n2)c(OCC(F)(F)F)nc1N(C)CCNC [AST5902  (trimesylate)] (2.5 µM) | 0 | 0 | 0 | 3 | 0 | 3 | 0 | 0 | 1 | 0 | 0 | 0 | 0 | 0 | 0 | 0 | 0 | 0 | 0 | 0 |
| CN1CCC(Nc2nc(Nc3ccc(Oc4ccccc4)cc3)c3c(=O)[nH]cc(Br)c3n2)CC1 (2.5 µM) | 0 | 0 | 3 | 0 | 0 | 3 | 4 | 0 | 0 | 1 | 0 | 4 | 0 | 0 | 0 | 0 | 0 | 3 | 0 | 0 |
| C=CC(=O)N1CCC(c2ccc(C(N)=O)c(-c3ccc(Oc4ccccc4)cc3)n2)CC1 [Orelabrutinib] (2.5 µM) | 0 | 0 | 0 | 0 | 0 | 0 | 0 | 0 | 0 | 0 | 0 | 0 | 0 | 0 | 0 | 0 | 0 | 0 | 0 | 0 |
| CCOC(=O)c1c(Nc2ccccc2Cl)oc(/C=C2\C=Nc3ncccc32)c1O (10 µM) | 0 | 0 | 0 | 0 | 0 | 0 | 0 | 0 | 0 | 0 | 0 | 0 | 0 | 0 | 0 | 0 | 0 | 0 | 0 | 0 |
| O=c1cc(-c2ccc(O[C@@H]3O[C@H](CO)[C@@H](O)[C@H](O)[C@H]3O)cc2)oc2cc(O)c([C@@H]3O[C@H](CO)[C@@H](O)[C@H](O)[C@H]3O[C@@H]3OC[C@H](O)[C@H](O)[C@H]3O)c(O)c12 [Vaccarin] (10 µM) | 0 | 0 | 0 | 0 | 0 | 0 | 0 | 0 | 0 | 0 | 0 | 0 | 0 | 0 | 0 | 0 | 0 | 0 | 0 | 0 |
| CC(C)n1cnc2c(Nc3cccc(Cl)c3)nc(N[C@H]3CCCC[C@@H]3N)nc21 (2.5 µM) | 0 | 0 | 0 | 0 | 0 | 0 | 0 | 0 | 0 | 0 | 0 | 0 | 0 | 0 | 0 | 0 | 0 | 0 | 0 | 0 |
| CC(C)(CCCCCC(O)CCCCCC(C)(C)C(=O)O)C(=O)O [Bempedoic acid] (10 µM) | 0 | 0 | 0 | 0 | 0 | 0 | 0 | 0 | 0 | 0 | 0 | 0 | 0 | 0 | 0 | 0 | 0 | 0 | 0 | 0 |
| COc1cc2ncnc(Nc3cc(Br)c(O)c(Br)c3)c2cc1OC (2.5 µM) | 0 | 0 | 0 | 0 | 0 | 0 | 0 | 0 | 0 | 0 | 0 | 0 | 0 | 0 | 0 | 0 | 0 | 0 | 0 | 0 |
| O=C1NC(=O)C(Cc2c[nH]c3c(Cl)cccc23)N1 (stereo not given) [Necroptosis-IN-1] (10 µM) | 0 | 0 | 0 | 0 | 0 | 0 | 0 | 0 | 0 | 0 | 0 | 0 | 0 | 0 | 0 | 0 | 0 | 0 | 0 | 0 |
| COc1cc(N2CCC(N3CCN(C)CC3)CC2)ccc1Nc1ncnc(Nc2ccccc2S(=O)(=O)C(C)C)n1 (10 µM) | 0 | 0 | 0 | 0 | 0 | 0 | 2 | 0 | 0 | 0 | 0 | 0 | 0 | 0 | 0 | 0 | 0 | 0 | 0 | 0 |
| CCOC(=O)c1c(C)[nH]c(C=C2C(=O)Nc3ccccc32)c1C (10 µM) | 0 | 0 | 0 | 0 | 0 | 0 | 0 | 0 | 0 | 0 | 0 | 0 | 0 | 0 | 0 | 0 | 0 | 0 | 0 | 0 |
| CN(C)CCOc1cc(-c2cn[nH]c2)ccc1NC(=O)C1COc2ccccc2O1 (stereo not given) (10 µM) | 0 | 0 | 0 | 0 | 0 | 0 | 0 | 0 | 0 | 0 | 0 | 0 | 0 | 0 | 0 | 0 | 0 | 0 | 0 | 0 |
| O=[N+]([O-])c1ccc(-c2nc(-c3ccc(F)cc3)c(-c3ccncc3)[nH]2)cc1 (10 µM) | 0 | 0 | 0 | 0 | 0 | 0 | 0 | 0 | 0 | 0 | 0 | 0 | 0 | 0 | 0 | 0 | 3 | 0 | 0 | 0 |
| NC(=O)c1c(NC(=O)C2CC2)sc2c1CCCC2 (10 µM) | 0 | 0 | 0 | 0 | 0 | 0 | 0 | 0 | 0 | 0 | 0 | 0 | 0 | 0 | 0 | 0 | 0 | 0 | 0 | 0 |
| C[C@@H]1COC(Nc2ccc3ncnc(Nc4ccc(OCc5nccs5)c(Cl)c4)c3c2)=N1 [Varlitinib] (10 µM) | 0 | 0 | 0 | 0 | 0 | 0 | 1 | 0 | 3 | 0 | 0 | 0 | 0 | 0 | 0 | 0 | 0 | 0 | 0 | 0 |
| O=CN1CCN(c2ccc(C=C3C(=O)Nc4ccccc43)cc2)CC1 (10 µM) | 0 | 0 | 0 | 0 | 0 | 0 | 0 | 0 | 0 | 0 | 0 | 0 | 0 | 0 | 0 | 0 | 0 | 0 | 0 | 0 |
| Cc1nc(NC(=O)N2CCC[C@H]2C(N)=O)sc1-c1ccnc(C(C)(C)C(F)(F)F)c1 [Alpelisib] (2.5 µM) | 0 | 0 | 0 | 0 | 0 | 0 | 0 | 0 | 0 | 0 | 0 | 0 | 0 | 0 | 0 | 0 | 0 | 0 | 0 | 0 |

Record cards (already shown). Order of values: number of time points (ALK) | number of time points (ARAF) | number of time points (AURKA) | number of time points (AURKB) | number of time points (AURKC) | number of time points (BLK) | number of time points (BMX) | number of time points (BRAF) | number of time points (BRAF_V600E) | number of time points (BTK) | number of time points (CAMK2A) | number of time points (CAMK2G) | number of time points (CDK10) | number of time points (CDK2) | number of time points (CDK3) | number of time points (CDK5) | number of time points (CDK6) | number of time points (CHEK2) | number of time points (CSF1R) | number of time points (CSK)
CCOC(=O)c1c(C)[nH]c(C=C2C(=O)Nc3ccccc32)c1C (10 µM) in the list: 0 | 0 | 0 | 0 | 0 | 0 | 0 | 0 | 0 | 0 | 0 | 0 | 0 | 0 | 0 | 0 | 0 | 0 | 0 | 0
CCCCNc1ncc(C(=O)NCc2ccc(-n3ccnc3)cc2)c(NC2CCC(O)CC2)n1 (stereo not given) (10 µM) in the list: 0 | 0 | 0 | 0 | 0 | 0 | 0 | 0 | 0 | 0 | 0 | 0 | 0 | 0 | 0 | 0 | 0 | 1 | 1 | 0
